According to patent publication US20160177307:
Construct, isoform or probe ends are uncertain for at least one entry. For some of these results: A negative result means that nothing was seen under these conditions.

Chains of the proteins cited; added tags and fusions are not shown. A line that says so, or that is headed by a name, gives the form on record, which may keep a tag or linker. Residues count along the entry.
UniProt P01127, 82-190: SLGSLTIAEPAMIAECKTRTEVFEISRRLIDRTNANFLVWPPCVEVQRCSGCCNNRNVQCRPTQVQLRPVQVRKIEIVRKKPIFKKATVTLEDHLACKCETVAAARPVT
VEGF-165 (Homo sapiens), one chain, as listed by the source: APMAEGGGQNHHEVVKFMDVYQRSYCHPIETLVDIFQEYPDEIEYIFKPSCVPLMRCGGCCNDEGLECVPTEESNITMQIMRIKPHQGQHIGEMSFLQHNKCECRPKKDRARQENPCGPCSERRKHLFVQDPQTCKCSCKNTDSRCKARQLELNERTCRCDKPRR
VEGF-121 (Homo sapiens), one chain, as listed by the source: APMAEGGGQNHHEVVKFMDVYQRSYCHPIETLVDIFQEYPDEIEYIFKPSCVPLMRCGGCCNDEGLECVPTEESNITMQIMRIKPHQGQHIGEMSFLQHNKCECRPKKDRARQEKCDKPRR

Key:
VEGF-121 (Homo sapiens) = assay: filter binding; conditions: BndU at 1,8,16,17,20; MBndU at 2; Heg at 5; C3 at 11; 2'-OMe at A3,C12,A19,A21,G24 and 2'-OMe-BnU at 7,18; NB, specificity control; purified recombinant …; protein details: R&D Systems; label: 5'-32P; single-stranded DNA; variant of 4149-8_38
VEGF-165 (Homo sapiens) = assay: filter binding; conditions: BndU at 1,8,16,17,20; MBndU at 2; Heg at 5; C3 at 11; 2'-OMe at A3,C12,A19,A21,G24 and 2'-OMe-BnU at 7,18; NB, specificity control; purified recombinant …; label: 5'-32P; single-stranded DNA; variant of 4149-8_38
[1] = molecular target: PDGF-BB (platelet-derived growth factor BB) (Homo sapiens) (UniProt P01127); assay: activity in cells; conditions: BndU, PDGFRb phosphorylation, Hs27, purified recombinant protein, single-stranded DNA

| Sequence | binding result (VEGF-121 (Homo sapiens)) | binding result (VEGF-165 (Homo sapiens)) | IC50 ([1]; MBndU 2, 2'-OMe 3,7,12,18,19,21,24, Heg 5, C3 11) | IC50 ([1]; PDGF_379-3Heg-VEGF_192, NapdU, MBndU, 2'-OMe) |
| --- | --- | --- | --- | --- |
| TTACGTTACCGCGTTTATAGCG [4149-8_379] | no binding | no binding | 1.6 nM |  |
| TTACGTTACCGCGTTTATAGCGCCGTTCAAGTGCTTGTAGGATTTAAATGG [4149-8_401] |  |  |  | 2.4 nM |
